In patent US20020142982A1, “Method for regulating angiogenesis” (priority 1999, published 2002):
For at least one compound, name, drawing or mass did not settle the structure.

Key:
EDG-1 [1] = assay: Phosphorylation of endogenous EDG-1 in 32P-labeled HUVEC; assay type: cell-based, human; conditions: wortmannin 100 nM, LY294002 10 μM
Procedure: (Upper panel) Normal HUVEC cells were labelled with [^32P]-orthophosphate, and stimulated with 100 nM S1P for indicated times. Cell extracts were immunoprecipitated with the affinity-purifed anti-EDG-1 IgY, separated on a SDS-PAGE and autoradiographed. (Middle panel) Some cells were treated with 10 μM LY294002 or 100 nM Wortmannin prior to stimulation with S1P and EDG-1 phosphorylation was examined as above. (Lower panel) Some cells were transduced with 100 MOI of wild-type (wt)-Akt, dominant negative (dn)-Akt or the β-gal virus for 12 h prior to stimulation with S1P. EDG-1 phosphorylation was examined as above.
(§1) To label the EDG-1 receptor in HUVEC and HEK293EDG-1 cells, they were pre-incubated in phosphate-free DMEM (GIBCO-BRL) for 2 hr. Subsequently, cells were labeled with [^32P] orthophosphate (80 μCl/ml) for 3 hr. To examine the effect of P1-3 kinase, cultures were treated with wortmannin (100 nM) or LY294002 (10 μM) during tine last hour of labeling. After SPP stimulation, ^32P-labeled EDG-1 receptor was immunoprecipitated with either chicken anti-EDG-1 1gY or anti-M2, resolved on SDS-PAGE, and visualized by autoradiography.
Chicken anti-human EDG-1 antibodies against human EDG-1 polypeptide expressed in E. coli were raised in Aves Labs, Tigard, Oreg. This antibody specifically detected EDG-1 polypeptide in HUVEC cells and transfected HEK293 cells. […]

HUVEC = assay: Actin cytoskeleton (stress fibers, cortical actin) in HUVEC, phalloidin staining; assay type: cell-based, human
Procedure: SPP is known to induce Rho-dependent actin stress fibers in NIH3T3 fibroblasts. To disclose Rho- or Rac-dependence, HUVEC were plated at 2×10^5 cells in 35 mm glass bottom petri dishes (Plastek cultureware, Mat Tek Corporation, Ashland Mass.). Two days later, recently confluent cells were washed and changed to medium M199 supplemented with 10% dialyzed charcoal-stripped fetal bovine serum (CFBS) and growth factors for 16 hours. Approximately 500-800 cells were then microinjected cytoplasmically with Rho inhibitor C3 exoenzyme (0.1 μg/μL, Calbiochem) or dominant negative N17Rac protein (0.35 μg/μl; Ridley, A., et al., Cell 70: 401-410 (1992)) using Femtotips (Eppendorf) at 100 hPa/0.2 sec. Injected cells were marked by coinjection of FITC-rabbit IgG (5 mg/mL, Cappel).
Subsequently, cells were treated with or without SPP. After treatment cells were washed with ice-cold PBS, fixed with 4% formaldehyde at room temperature or methanol at −20° C. for 15 minutes. In the case of formaldehyde fixation, cells were permeabilized with 0.2% Triton X-100 (TX-100). Actin microfilaments were visualized by staining with either FTOC- or TRITC-conjugated phalloidin (0.05 μg/mL, Sigma) for 30 minutes at room temperature.

[2] = system: EDG-1-expressing CHO cells; assay: S1P-induced migration of CHO cells expressing EDG-1; assay type: cell-based; conditions: EDG-1-expressing cells; Wortmannin 100 nM, LY294002 10 μM
EDG-1 [3] = assay: EDG-1 phosphorylation in 32P-labeled HEK293EDG-1 cells; assay type: cell-based; conditions: 10 μM LY294002, HEK293EDG-1 cells
Procedure: FIG. 26 is an SDS PAGE showing that S1P treatment induces EDG-1 phosphorylation. HEK293EDG-1 were labeled with [^32P]-orthophosphate, and stimulated with 100 nM S1P for indicated times. Some cultures were treated with 10 μM LY294002.
as §1

SMILES | inhibition of S1P-stimulated EDG-1 phosphorylation (EDG-1 [1]) | inhibition of SPP-induced cortical actin structures by PI-3 kinase inhibitors (HUVEC) | inhibition of S1P-induced migration response [2] | inhibition of S1P-induced phosphorylation of EDG-1 (EDG-1 [3])
COC[C@H]1OC(=O)c2coc3c2[C@@]1(C)C1=C(C3=O)[C@@H]2CCC(=O)[C@@]2(C)C[C@H]1OC(C)=O [Wortmannin] | inhibited | inhibited | strongly inhibited | 
O=c1cc(N2CCOCC2)oc2c(-c3ccccc3)cccc12 [LY294002] | inhibited | inhibited | strongly inhibited | suppressed
